PubChem BioAssay (NCATS)
This is one part of the list. Further columns of the screen follow, without active or inactive calls. Most of these compounds were active or inconclusive in the main read-out, so they are no random draw. Potencies come from curve fits of mixed quality, noted in brackets.

Test: qHTS for identification of novel therapeutic agents for treatment of microphthalmiaassociated transcription factor (MiT) renal cell carcinoma (RCC) (AID 1963991)
Conditions: CellTiter-Glo, 48 h; for z-score: stronger effect = lower value
Summary of the method: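 Viability of three TFE3-fusion renal carcinoma lines measured by CellTiter-Glo after 48 h treatment with each of 1912 compounds at 11 concentrations. Responses scaled between DMSO (100%) and empty wells (0%) before curve fitting.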

[1] = TFE3-RCC UOK109 viability, measured here: UOK109 Z-AUC
[2] = TFE3-RCC viability, measured here: UOK124 Z-AUC
[3] = TFE3-RCC viability, measured here: UOK145 Z-AUC
[4] = TFE3-RCC viability, measured here: UOK145 cell viability
[5] = TFE3-RCC viability, measured here: UOK124 cell viability

## O=C1NC(=O)C(=Cc2cccc(C(F)(F)F)c2)S1
[1]
  z-score: 0.834
[2]
  z-score: 0.823
[3]
  z-score: 0.597
[4]
  AC50: 18.7 µM [falling, partial curve]

## CCOC1OC(=O)C[C@H]1NC(=O)[C@@H]1CCCN1C(=O)[C@@H](NC(=O)c1ccc(N)c(Cl)c1)C(C)(C)C (stereo partly drawn)
[1]
  z-score: 0.552
[2]
  z-score: 0.676
[3]
  z-score: 0.742
[4]
  AC50: 37.2 µM [falling, partial curve, poor fit]

## N#Cc1ccc(Oc2ccc3c(c2)COB3O)cc1
[1]
  z-score: 0.343
[2]
  z-score: 0.696
[5]
  AC50: 23.5 µM [falling, partial curve, poor fit]
[3]
  z-score: 0.613

## CCCn1c(=O)c2[nH]c(C34CC5CC3C[C@@H](C5)C4)nc2n(CCC)c1=O
[1]
  z-score: 0.809
[2]
  z-score: 0.646
[3]
  z-score: 0.522
[4]
  AC50: 18.7 µM [falling, partial curve, poor fit]

## COC[C@@H](c1ccc(C(F)(F)F)cc1)N1CCN(C2(C)CCN(C(=O)c3c(C)ncnc3C)CC2)C[C@H]1C
[1]
  z-score: 0.0911
[2]
  z-score: 0.221
[3]
  z-score: -0.039
[4]
  AC50: 14.8 µM [falling, partial curve]

## Cc1cc(C=c2sc3nc4ccccc4n3c2=O)c(C)n1-c1ccccc1
[1]
  z-score: 0.425
[2]
  z-score: 1.09
[5]
  AC50: 0.00209 µM [rising, full curve, poor fit]
[3]
  z-score: 0.542

## COc1cc(N2CCN(C)CC2)ccc1Nc1nc(N)c(C(=O)c2c(Cl)cccc2Cl)s1
[1]
  z-score: 0.101
[2]
  z-score: -0.307
[5]
  AC50: 20.9 µM [falling, partial curve]
[3]
  z-score: 1.01

## N#CC1(c2ccc(NC(=O)c3cccnc3NCc3ccncc3)cc2)CCCC1
[1]
  z-score: 0.0527
[2]
  z-score: 0.0743
[5]
  AC50: 29.6 µM [falling, single point]
[3]
  z-score: 0.04

## CNNCc1ccc(C(=O)NC(C)C)cc1
[1]
  z-score: 1.05
[2]
  z-score: 2.68
[5]
  AC50: 0.209 µM [falling, partial curve, poor fit]
[3]
  z-score: 1.2

## Cc1ccc(C(C)(O)c2nc3ccccc3s2)c(C)c1 (stereo not drawn)
[1]
  z-score: -0.255
[2]
  z-score: 0.741
[3]
  z-score: -0.0676
[4]
  AC50: 20.9 µM [falling, partial curve, poor fit]

## Cc1ccnc2c1NC(=O)c1cccnc1N2C1CC1
[1]
  z-score: 0.182
[2]
  z-score: 0.168
[3]
  z-score: 0.354
[4]
  AC50: 33.2 µM [falling, single point]

## O=c1cc(O)c(Cl)c[nH]1
[1]
  z-score: -0.273
[2]
  z-score: 0.529
[3]
  z-score: 0.637
[4]
  AC50: 3.32 µM [falling, full curve]
